Measured values taken from publication PMC3827329.
Results are given in words; binding and its absence hold for the method and conditions named. Binding seen in cells or lysates may run through a third protein. Some results given as binding are weak or reduced against the parent protein; the word gives no strength.

Protein sequences, listed by entry. Tags and fused reporters are not part of them.
UniProt P62136: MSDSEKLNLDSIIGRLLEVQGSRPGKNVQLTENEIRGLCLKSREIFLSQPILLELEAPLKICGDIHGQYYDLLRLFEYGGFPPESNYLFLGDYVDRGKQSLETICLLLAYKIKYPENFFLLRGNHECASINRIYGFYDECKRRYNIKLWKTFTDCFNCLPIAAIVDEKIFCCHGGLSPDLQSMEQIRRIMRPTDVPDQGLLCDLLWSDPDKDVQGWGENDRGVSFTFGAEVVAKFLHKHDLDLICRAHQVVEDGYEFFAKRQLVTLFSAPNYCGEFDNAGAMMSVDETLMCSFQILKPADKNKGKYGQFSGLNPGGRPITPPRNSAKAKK
UniProt P31751: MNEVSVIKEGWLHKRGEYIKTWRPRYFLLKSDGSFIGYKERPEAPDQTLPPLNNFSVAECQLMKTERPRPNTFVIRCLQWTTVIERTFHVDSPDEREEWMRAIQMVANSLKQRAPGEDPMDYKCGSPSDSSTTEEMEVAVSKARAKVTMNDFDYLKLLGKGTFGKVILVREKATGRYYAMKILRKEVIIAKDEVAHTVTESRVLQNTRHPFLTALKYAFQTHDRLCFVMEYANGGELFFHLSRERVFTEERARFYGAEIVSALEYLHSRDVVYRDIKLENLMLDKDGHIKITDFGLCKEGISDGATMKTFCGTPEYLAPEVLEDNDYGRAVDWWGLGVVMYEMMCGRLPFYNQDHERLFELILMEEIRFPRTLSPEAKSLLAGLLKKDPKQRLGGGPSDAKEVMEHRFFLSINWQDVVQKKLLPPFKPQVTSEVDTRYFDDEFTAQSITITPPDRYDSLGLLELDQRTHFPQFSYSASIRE
UniProt P31749: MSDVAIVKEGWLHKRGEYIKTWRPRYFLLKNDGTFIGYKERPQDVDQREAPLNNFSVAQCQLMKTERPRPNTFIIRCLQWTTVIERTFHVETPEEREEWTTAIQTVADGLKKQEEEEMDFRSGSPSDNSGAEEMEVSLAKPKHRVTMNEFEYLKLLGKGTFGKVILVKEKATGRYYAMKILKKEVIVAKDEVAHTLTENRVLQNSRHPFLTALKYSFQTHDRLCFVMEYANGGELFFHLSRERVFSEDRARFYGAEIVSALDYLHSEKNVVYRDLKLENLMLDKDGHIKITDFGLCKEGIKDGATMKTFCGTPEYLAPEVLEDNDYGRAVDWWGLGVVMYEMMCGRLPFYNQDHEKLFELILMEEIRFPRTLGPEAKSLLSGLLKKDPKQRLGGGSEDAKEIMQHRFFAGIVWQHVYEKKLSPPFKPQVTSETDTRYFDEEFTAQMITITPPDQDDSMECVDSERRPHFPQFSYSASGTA
UniProt Q9Y243: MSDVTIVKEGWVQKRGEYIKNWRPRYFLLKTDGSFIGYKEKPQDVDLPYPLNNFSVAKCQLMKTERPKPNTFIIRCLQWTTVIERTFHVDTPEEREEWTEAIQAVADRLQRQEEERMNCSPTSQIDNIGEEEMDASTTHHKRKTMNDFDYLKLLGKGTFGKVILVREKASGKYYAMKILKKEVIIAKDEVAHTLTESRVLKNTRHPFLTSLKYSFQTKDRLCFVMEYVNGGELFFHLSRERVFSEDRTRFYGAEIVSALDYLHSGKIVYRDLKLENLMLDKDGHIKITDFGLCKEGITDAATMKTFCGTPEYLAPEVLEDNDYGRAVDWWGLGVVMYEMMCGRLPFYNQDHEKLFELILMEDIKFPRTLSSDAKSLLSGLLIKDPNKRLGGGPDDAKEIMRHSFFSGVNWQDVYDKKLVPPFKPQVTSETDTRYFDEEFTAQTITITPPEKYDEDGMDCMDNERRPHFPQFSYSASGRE

Key:
Experiment in all cases: pull-down; GST-tagged bait and His-Xpress-KCTD20 coexpressed in COS7 cells; lysates (20 mM HEPES pH 7.5, 150 mM NaCl, 1 mM DTT, 1 mM EDTA, 0.5% Triton X-100) precleared with sepharose 4B, pulled down with glutathione beads, washed five times; immunoblot with anti-Xpress and anti-GST
[1] = molecular target: GST-tagged catalytic subunit of PP1A (UniProt P62136)
[2] = molecular target: GST-Akt2 (UniProt P31751)
[3] = molecular target: GST-Akt1 (UniProt P31749)
[4] = molecular target: GST-Akt3 (UniProt Q9Y243)

binding [1]: binds | binding [2]: binds | binding [3]: binds | binding [4]: binds
Substance: His-Xpress-KCTD20 (potassium channel tetramerization protein domain containing 20) (from UniProt Q7Z5Y7-1 1-419)
